Assay results reported in paper PMC7160132.
These are yes or no findings as the source states them, for the method shown. Binding seen in cells or lysates may run through a third protein.

By UniProt entry, the sequences of proteins in these tests, tags left out. Where a name states a change or a piece, a line headed by the entry shows the natural chain unless it says otherwise.
UniProt Q9HAV4: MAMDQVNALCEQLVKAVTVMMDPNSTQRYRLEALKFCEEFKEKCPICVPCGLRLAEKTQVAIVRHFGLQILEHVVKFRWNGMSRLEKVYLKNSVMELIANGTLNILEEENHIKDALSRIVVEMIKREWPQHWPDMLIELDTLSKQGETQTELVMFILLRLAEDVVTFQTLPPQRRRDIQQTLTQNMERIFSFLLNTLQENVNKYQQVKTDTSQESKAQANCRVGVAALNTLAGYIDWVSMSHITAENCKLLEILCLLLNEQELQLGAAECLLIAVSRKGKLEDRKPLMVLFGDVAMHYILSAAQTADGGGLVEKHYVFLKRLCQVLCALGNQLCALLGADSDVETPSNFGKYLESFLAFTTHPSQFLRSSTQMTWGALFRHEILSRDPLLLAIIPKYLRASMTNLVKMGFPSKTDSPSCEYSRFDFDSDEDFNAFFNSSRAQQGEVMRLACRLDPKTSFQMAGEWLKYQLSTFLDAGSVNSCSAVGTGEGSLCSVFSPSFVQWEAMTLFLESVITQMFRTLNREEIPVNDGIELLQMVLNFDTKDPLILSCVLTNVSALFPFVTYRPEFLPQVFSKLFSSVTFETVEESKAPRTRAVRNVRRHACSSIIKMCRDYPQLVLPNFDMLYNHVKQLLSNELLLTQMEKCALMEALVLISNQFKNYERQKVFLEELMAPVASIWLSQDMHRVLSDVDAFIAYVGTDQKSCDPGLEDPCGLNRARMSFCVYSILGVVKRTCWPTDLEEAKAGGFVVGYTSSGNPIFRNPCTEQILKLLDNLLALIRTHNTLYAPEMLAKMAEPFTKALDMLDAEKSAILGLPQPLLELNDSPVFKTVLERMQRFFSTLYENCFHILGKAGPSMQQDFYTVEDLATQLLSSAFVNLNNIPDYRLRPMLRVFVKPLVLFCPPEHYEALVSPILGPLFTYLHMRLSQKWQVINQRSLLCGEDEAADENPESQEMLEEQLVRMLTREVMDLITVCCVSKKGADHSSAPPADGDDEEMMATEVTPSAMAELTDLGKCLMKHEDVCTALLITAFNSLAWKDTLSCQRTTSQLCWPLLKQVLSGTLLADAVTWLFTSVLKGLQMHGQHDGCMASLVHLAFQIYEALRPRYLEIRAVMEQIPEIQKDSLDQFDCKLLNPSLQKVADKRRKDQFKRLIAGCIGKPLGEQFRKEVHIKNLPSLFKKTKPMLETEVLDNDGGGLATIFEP
UniProt Q9NRR4: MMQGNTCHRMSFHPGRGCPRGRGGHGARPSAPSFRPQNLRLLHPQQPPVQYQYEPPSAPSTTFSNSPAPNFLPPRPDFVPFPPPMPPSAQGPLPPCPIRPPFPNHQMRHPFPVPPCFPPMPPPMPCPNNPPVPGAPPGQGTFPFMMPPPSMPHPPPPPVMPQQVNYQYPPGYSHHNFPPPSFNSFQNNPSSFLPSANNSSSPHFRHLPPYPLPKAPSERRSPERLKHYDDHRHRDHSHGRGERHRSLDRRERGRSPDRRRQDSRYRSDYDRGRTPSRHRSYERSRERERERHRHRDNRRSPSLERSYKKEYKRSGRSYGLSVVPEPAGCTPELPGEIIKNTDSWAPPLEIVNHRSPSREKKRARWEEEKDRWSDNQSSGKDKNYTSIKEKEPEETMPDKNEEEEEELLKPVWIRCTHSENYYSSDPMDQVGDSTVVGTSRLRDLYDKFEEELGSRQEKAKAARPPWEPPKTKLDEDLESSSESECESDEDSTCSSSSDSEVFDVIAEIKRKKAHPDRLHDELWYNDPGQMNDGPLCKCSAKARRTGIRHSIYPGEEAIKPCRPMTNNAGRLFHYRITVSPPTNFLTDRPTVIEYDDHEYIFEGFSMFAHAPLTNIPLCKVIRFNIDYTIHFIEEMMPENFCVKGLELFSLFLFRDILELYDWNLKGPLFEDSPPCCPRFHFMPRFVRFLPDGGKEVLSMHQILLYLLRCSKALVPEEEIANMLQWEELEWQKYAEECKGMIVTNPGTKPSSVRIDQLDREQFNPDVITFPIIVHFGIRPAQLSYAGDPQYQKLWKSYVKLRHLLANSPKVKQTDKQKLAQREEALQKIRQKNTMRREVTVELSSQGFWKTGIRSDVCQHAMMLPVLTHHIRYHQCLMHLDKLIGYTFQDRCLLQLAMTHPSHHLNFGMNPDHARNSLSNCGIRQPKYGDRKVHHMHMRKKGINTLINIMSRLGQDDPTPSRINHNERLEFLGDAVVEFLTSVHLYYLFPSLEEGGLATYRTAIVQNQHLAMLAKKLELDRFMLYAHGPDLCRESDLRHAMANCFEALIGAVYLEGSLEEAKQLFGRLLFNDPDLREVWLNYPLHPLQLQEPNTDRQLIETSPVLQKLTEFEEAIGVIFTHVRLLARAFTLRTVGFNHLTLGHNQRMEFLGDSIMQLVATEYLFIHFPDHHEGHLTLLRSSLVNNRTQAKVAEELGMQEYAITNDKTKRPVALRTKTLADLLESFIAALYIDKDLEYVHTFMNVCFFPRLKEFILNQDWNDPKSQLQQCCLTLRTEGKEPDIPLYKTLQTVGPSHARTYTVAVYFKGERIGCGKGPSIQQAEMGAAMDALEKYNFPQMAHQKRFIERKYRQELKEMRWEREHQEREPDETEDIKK

Biological target: Flag-XPO5 (FLAG-tagged human XPO5) (human) (UniProt Q9HAV4)
Assay: co-IP; anti-FLAG M2 affinity purification from transfected HEK293T (293FT) cells lysed in hypotonic gentle lysis buffer (10 mM Tris-HCl pH 7.6, 10 mM NaCl, 2 mM EDTA, 0.5% Triton X-100); Western blot and silver stain

“DROSHA/DGCR8 microprocessor (from UniProt Q9NRR4 1-1374; Q8WYQ5 1-773) (complex)” was tested. Which binding did it give?
Its binding is “no binding”.
